# Measured values from PubChem BioAssay AID504834 (National Center for Advancing Translational Sciences (NCATS), 2011).
# Values joined by “and” are separate entries in the source; they are usually repeats but may differ in a detail not shown here. Identical values can stand only once. Out of some 320,000 compounds screened, about 22,000 (6.9%) were called active. Inconclusive results, whose numbers are uncertain, are shown with a selection of clear calls. The call rests on the fitted dose curve; in most records, active means well fitted inhibition curve with a large enough effect; inconclusive means small, poorly fitted or top-dose-only effect, or another doubt; inactive means no such curve, though single readings can be large or run the other way. Where the call is inconclusive, the potency comes from a doubtful curve fit.
# Assay: Primary qHTS for delayed death inhibitors of the malarial parasite plastid, 96 hour incubation
# Settings: P. falciparum luciferase reporter growth; series mostly up to 28.7 µM; activity change, negative = inhibition: at the top concentration
# Outline: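 Erythrocytes infected with luciferase-expressing P. falciparum were dispensed at 2% hematocrit and 0.05% parasitemia (final), then incubated with compounds 96 hours at 37 C in 5% CO2. Luminescence after detection reagent addition reported growth.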
# On the % scale 0 is the no-effect control and ±100 the full control effect; potency means the concentration at half of the fitted maximal effect.
SMILES,Potency,"activity change, negative = inhibition"
Cc1ccc(CS(=O)Cc2ccc(C(=O)NCc3ccccc3Cl)o2)cc1 (centres undefined),"inconclusive: 10.4 µM [inhibitor, partial curve, poor fit]",–
Cc1ccc(NC(=S)NC2CC3CCC(C2)N3Cc2ccco2)c(C)c1 (centres undefined),"inconclusive: 10.4 µM [inhibitor, single point]",–
COc1ccc(/C=C2\SC(N)=NC2=O)cc1,"inconclusive: 18.5 µM [inhibitor, single point]",–
CSc1ccc(/C=N\Nc2nncn2N)cc1,–,inactive: 35.8%
Nc1c(C(=O)Nc2ccccc2Cl)nnn1-c1ccc2c(c1)OCCO2,"inconclusive: 10.4 µM [inhibitor, single point]",–
O=C(NCC(c1ccco1)N1CCc2ccccc2C1)C(=O)Nc1ccccc1 (centres undefined),"inconclusive: 5.22 µM [inhibitor, partial curve]",–
C/C(CCc1ccccc1)=N\NC(=O)COc1ccccc1C,–,inactive: 50%
Cc1ccccc1CN1C(=O)c2ccccc2Sc2ccc(C(=O)O)cc21,"inconclusive: 0.0828 µM [inhibitor, full curve, poor fit]",–
CC(C)C(CCNC(=O)CN1C(=O)c2ccccc2C1=O)c1ccco1 (centres undefined),"inconclusive: 7.38 µM [inhibitor, single point]",–
CC(=O)OCC(=O)C1(O)CCC2C3CCC4=CC(=O)C=CC4(C)C3C(O)CC21C (centres undefined),–,inactive: -2.87%
CCC(C)(C)NC(=O)C(c1cccnc1)N(CCOC)C(=O)Cn1nnc2ccccc21 (centres undefined),"inconclusive: 1.65 µM [inhibitor, partial curve, poor fit]",–
O=C(C(=O)c1cccnc1)c1cccnc1,"inconclusive: 20.8 µM [inhibitor, partial curve, poor fit]",–
CSc1ccccc1OCc1cc(C(=O)NCCCn2nc(C)cc2C)no1,"inconclusive: 0.0037 µM [inhibitor, full curve]",–
O=C(NC1=NCCS1)C1CC(=O)N(c2ccccc2)C1 (centres undefined),–,inactive: -27.7%
C[C@H](NC(=O)c1ccccc1)C(=O)OCC(=O)Nc1ccc2c(c1)OCO2,"inconclusive: 1.65 µM [inhibitor, full curve, poor fit]",–
CCCc1ncc(CN2CCCC(C(=O)Nc3ccc(-c4cccc(OC)c4)cc3)C2)cn1 (centres undefined),"inconclusive: 18.5 µM [inhibitor, single point]",–
CCC(C)NC(=O)CN(C1CCCCC1)S(=O)(=O)c1ccc(F)cc1 (centres undefined),–,inactive: 17.2%
COc1cc2c(cc1OC)C(=S)NC(C)(C)C2,"inconclusive: 16.5 µM [inhibitor, partial curve, poor fit]",–
COc1ccc(C(CC(=O)N2CCCC2)c2c(OC)cc(OC)c3ccc(=O)oc23)cc1 (centres undefined),"inconclusive: 18.5 µM [inhibitor, single point]",–
COc1ccc(NS(=O)(=O)c2cccc(N3CC(O)=C(c4ccccc4)C3=N)c2)cc1,"inconclusive: 11.7 µM [inhibitor, single point]",–
COc1nc(N)c(S(=O)(=O)c2ccc(C)cc2)cc1C#N,"inconclusive: 2.94 µM [inhibitor, full curve]",–
O=C(Cc1ccc(S(=O)(=O)N2CCOCC2)s1)N1CCN(S(=O)(=O)c2cccc(Cl)c2)CC1,"inconclusive: 4.65 µM [inhibitor, partial curve]",–

SMILES,Potency,"activity change, negative = inhibition"
CCNC(=O)C1CCCN(c2nc(C)cc(C)n2)C1 (centres undefined),"inconclusive: 0.738 µM [inhibitor, partial curve, poor fit]",–
CCc1cc(-c2n[nH]c(=S)n2N)n(C)n1,"inconclusive: 1.47 µM [inhibitor, partial curve, poor fit]",–
Cc1ccc(N2CCN(S(=O)(=O)c3ccc4oc(=O)ccc4c3)CC2)cc1Cl,–,inactive: -17%
O=C(NCc1ccccc1)c1ccc2nnsc2c1,–,inactive: 2.85%
CCOc1ccc(Br)cc1C1=CC(=O)C[C@H](c2ccc(OC)cc2)C1,"inconclusive: 13.1 µM [inhibitor, single point]",–
COc1ccc(N(C(=O)Cn2nnc(-c3ccc(F)cc3)n2)C(C)C(=O)NC2CCCC2)cc1OC (centres undefined),–,inactive: -15.7%
CC(=O)NC1C(=O)N(Cc2ccccc2)c2ccc(Br)cc21 (centres undefined),"inconclusive: 11.7 µM [inhibitor, partial curve, poor fit]",–
COc1ccc(CNc2cccc(C)n2)c(O)c1,–,inactive: 232%
CSc1ncc(/C=C2/C(=O)NC(=O)N(c3ccc(C)cc3)C2=O)cn1,–,inactive: 50.8%
O=C1CC(C2CCCO2)C(=O)N1c1ccccc1 (centres undefined),"inconclusive: 18.5 µM [inhibitor, single point]",–
CCOc1ccccc1C(=O)Nc1ccccc1-c1ccccc1,active: 4.15 µM,–
CN(Cc1ccco1)c1ncnc2ccc(-c3ccccc3Cl)cc12,"inconclusive: 13.1 µM [inhibitor, partial curve] and inconclusive: 18.5 µM [inhibitor, single point]",–
COc1ccc(C2/C(=C(/O)c3ccc4c(c3)CC(C)O4)C(=O)C(=O)N2CCN2CCOCC2)cc1 (centres undefined),–,inactive: 22%
Cc1nnc(SCC(=O)Nc2cccc(S(=O)(=O)N(C)c3ccccc3)c2)s1,"inconclusive: 0.0041 µM [inhibitor, full curve, poor fit]",–
COc1ccc(CCN(Cc2ccccn2)C(=S)Nc2ccccc2Cl)cc1OC,active: 13.1 µM,–
CCCCCCCC(=O)N/N=C(\C)c1cccnc1,"inconclusive: 18.5 µM [inhibitor, single point]",–
COc1ccc(-c2cc(C)no2)cc1S(=O)(=O)N1CC(=O)Nc2ccccc21,–,inactive: -25.5%
COc1ccc(CCN(C)C2CCCN(S(=O)(=O)c3ccccc3F)C2)cc1OC (centres undefined),active: 13.1 µM,–
CCOc1ccc(-c2cccc(NS(=O)(=O)c3ccccc3[N+](=O)[O-])c2)nn1,"inconclusive: 9.28 µM [inhibitor, partial curve]",–
Cc1[nH]n(-c2ccccc2)c(=O)c1/C=N/NC(=O)c1ccc(O)cc1O,"inconclusive: 2.62 µM [inhibitor, partial curve]",–
COc1ccc(C)cc1NC(=O)CNCc1cccs1,active: 11.7 µM,–
CC(=O)c1ccc(Nc2nc(C)cc(C)n2)cc1,"inconclusive: 1.65 µM [inhibitor, partial curve]",–
